In article PMC8500980:
No constants are given. Whether binding was seen depends on the method and setting. Binding seen in cells or lysates may run through a third protein. Some results given as binding are weak or reduced against the parent protein; the word gives no strength.

Experiments:
[1] = target: T1, FKBP51 (human (endogenous in A549 and SPC-A1)) (UniProt Q13451); experiment: co-IP; total cell lysate incubated overnight with antibody against FKBP51, protein G sepharose, SDS-PAGE and immunoblot; cells with control or si-CCAT1 transfection
T1 sequence: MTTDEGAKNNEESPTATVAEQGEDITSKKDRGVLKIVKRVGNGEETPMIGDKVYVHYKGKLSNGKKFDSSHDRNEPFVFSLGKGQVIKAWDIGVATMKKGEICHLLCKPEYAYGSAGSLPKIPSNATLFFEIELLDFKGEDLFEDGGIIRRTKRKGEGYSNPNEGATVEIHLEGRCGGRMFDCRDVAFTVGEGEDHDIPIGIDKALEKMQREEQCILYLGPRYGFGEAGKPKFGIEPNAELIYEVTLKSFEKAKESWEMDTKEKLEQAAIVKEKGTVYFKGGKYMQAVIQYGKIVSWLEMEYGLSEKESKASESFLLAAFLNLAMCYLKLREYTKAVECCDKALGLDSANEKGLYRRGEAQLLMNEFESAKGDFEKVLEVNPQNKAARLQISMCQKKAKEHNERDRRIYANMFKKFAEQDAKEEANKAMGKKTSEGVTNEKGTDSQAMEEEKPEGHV

[2] = target: T1, FKBP51 (human (endogenous in A549 and SPC-A1)); experiment: condition: only in cells overexpressing the lncRNA CCAT1; co-IP; total cell lysate incubated overnight with antibody against FKBP51, protein G sepharose, SDS-PAGE and immunoblot; cells overexpressing the lncRNA CCAT1 (pcDNA3.1/CCAT1)

binding [1]: binds | binding [2]: no binding
B1: ubiquitin specific peptidase 49 (USP49) (enzyme, UniProt Q70CQ1 1-688)
chain: MDRCKHVGRLRLAQDHSILNPQKWCCLECATTESVWACLKCSHVACGRYIEDHALKHFEETGHPLAMEVRDLYVFCYLCKDYVLNDNPEGDLKLLRSSLLAVRGQKQDTPVRRGRTLRSMASGEDVVLPQRAPQGQPQMLTALWYRRQRLLARTLRLWFEKSSRGQAKLEQRRQEEALERKKEEARRRRREVKRRLLEELASTPPRKSARLLLHTPRDAGPAASRPAALPTSRRVPAATLKLRRQPAMAPGVTGLRNLGNTCYMNSILQVLSHLQKFRECFLNLDPSKTEHLFPKATNGKTQLSGKPTNSSATELSLRNDRAEACEREGFCWNGRASISRSLELIQNKEPSSKHISLCRELHTLFRVMWSGKWALVSPFAMLHSVWSLIPAFRGYDQQDAQEFLCELLHKVQQELESEGTTRRILIPFSQRKLTKQVLKVVNTIFHGQLLSQVTCISCNYKSNTIEPFWDLSLEFPERYHCIEKGFVPLNQTECLLTEMLAKFTETEALEGRIYACDQCNSKRRKSNPKPLVLSEARKQLMIYRLPQVLRLHLKRFRWSGRNHREKIGVHVVFDQVLTMEPYCCRDMLSSLDKETFAYDLSAVVMHHGKGFGSGHYTAYCYNTEGGFWVHCNDSKLNVCSVEEVCKTQAYILFYTQRTVQGNARISETHLQAQVQSSNNDEGRPQTFS
